According to the supplement of paper PMC12819154, “High-throughput peptide-centric local stability assay extends protein–ligand identification to membrane proteins, tissues and bacteria” (Nature Structural & Molecular Biology, 2025):
The list shows a part of the results. Small differences around the control level are noise.

Amino acid sequences for entries named in this document (tags omitted). A change or cut given only in a name is not applied to a line headed by its entry.
UniProt P51125: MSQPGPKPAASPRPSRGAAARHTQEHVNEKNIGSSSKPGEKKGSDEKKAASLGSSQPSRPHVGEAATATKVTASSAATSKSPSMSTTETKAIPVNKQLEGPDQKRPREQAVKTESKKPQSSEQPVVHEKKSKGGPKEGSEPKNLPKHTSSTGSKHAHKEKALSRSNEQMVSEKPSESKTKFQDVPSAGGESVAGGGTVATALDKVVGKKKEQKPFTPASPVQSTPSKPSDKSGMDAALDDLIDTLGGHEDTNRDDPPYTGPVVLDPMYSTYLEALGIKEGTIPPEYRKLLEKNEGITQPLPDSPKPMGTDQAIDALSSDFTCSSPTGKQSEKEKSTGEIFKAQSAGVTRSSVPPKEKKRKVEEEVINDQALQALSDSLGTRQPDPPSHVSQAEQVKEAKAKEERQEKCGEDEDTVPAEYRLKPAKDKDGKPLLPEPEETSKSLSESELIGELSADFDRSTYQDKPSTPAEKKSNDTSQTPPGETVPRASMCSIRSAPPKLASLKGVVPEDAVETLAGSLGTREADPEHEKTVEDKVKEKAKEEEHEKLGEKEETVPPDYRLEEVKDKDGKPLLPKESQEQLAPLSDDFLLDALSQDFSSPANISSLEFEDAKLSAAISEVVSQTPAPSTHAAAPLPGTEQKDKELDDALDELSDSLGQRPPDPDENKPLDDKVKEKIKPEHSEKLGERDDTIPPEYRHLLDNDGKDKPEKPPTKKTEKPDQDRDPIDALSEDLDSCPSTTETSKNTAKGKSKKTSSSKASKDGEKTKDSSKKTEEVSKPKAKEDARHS
UniProt P41317: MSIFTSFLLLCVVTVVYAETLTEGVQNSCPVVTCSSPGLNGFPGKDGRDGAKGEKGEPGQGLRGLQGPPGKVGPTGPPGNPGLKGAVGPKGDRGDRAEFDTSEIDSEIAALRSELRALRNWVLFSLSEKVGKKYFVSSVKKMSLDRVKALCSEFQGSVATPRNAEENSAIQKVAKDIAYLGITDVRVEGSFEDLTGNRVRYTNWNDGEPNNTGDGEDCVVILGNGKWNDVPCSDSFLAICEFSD
UniProt P52019: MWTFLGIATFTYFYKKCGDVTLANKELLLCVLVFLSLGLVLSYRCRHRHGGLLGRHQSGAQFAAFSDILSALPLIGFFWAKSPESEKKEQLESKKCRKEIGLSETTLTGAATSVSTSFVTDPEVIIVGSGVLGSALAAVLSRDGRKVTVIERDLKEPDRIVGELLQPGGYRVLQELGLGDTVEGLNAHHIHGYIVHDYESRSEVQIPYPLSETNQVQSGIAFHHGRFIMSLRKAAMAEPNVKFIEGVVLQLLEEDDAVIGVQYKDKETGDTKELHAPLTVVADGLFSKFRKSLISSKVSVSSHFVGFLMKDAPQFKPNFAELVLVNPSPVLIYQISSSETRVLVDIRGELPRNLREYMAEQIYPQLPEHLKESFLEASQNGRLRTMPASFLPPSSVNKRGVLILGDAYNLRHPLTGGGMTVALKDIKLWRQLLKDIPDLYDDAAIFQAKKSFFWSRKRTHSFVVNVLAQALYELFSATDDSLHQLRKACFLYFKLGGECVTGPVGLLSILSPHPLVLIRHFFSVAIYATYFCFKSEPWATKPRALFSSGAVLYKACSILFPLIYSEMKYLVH
UniProt P49452, whole entry: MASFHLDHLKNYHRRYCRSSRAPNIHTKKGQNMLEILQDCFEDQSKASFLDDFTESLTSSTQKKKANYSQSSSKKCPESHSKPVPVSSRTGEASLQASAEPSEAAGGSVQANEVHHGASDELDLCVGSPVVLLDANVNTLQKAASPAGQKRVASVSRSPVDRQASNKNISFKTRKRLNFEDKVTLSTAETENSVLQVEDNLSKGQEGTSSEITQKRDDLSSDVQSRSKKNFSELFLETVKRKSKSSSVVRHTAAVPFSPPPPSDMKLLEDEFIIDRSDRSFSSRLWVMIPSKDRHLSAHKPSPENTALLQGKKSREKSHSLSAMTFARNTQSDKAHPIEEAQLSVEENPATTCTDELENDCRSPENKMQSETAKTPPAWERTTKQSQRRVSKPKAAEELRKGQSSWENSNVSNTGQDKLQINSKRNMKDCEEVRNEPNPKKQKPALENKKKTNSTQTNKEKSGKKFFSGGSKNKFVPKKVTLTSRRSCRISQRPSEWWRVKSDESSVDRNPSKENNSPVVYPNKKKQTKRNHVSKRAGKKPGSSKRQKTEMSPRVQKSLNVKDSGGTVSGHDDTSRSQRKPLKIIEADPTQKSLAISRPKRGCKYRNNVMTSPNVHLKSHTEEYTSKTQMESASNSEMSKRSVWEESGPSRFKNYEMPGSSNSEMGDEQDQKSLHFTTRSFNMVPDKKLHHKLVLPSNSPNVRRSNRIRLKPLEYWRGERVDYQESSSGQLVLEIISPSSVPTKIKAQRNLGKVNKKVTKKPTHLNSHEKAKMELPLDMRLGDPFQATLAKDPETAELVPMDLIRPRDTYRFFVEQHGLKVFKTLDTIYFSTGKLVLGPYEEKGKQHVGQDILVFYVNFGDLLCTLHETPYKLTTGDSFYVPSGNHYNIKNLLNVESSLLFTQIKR
UniProt P46412, whole entry: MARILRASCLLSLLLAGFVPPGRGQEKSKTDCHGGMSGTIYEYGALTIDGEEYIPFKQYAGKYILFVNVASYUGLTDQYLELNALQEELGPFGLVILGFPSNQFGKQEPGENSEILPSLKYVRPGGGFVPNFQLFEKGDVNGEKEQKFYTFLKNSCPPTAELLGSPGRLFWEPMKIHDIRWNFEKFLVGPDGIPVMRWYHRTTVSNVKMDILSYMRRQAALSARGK
UniProt P36993: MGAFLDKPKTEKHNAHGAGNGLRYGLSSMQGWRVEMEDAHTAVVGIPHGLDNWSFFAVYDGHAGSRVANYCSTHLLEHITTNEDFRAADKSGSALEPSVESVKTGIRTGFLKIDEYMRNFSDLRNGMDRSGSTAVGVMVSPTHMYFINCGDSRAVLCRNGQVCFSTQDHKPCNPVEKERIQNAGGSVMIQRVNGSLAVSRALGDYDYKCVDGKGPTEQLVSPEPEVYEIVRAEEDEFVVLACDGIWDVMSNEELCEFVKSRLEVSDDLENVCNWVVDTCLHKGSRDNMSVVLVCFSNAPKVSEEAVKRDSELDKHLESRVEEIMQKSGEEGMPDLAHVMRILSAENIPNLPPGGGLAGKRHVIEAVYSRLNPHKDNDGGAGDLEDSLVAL
UniProt P40201: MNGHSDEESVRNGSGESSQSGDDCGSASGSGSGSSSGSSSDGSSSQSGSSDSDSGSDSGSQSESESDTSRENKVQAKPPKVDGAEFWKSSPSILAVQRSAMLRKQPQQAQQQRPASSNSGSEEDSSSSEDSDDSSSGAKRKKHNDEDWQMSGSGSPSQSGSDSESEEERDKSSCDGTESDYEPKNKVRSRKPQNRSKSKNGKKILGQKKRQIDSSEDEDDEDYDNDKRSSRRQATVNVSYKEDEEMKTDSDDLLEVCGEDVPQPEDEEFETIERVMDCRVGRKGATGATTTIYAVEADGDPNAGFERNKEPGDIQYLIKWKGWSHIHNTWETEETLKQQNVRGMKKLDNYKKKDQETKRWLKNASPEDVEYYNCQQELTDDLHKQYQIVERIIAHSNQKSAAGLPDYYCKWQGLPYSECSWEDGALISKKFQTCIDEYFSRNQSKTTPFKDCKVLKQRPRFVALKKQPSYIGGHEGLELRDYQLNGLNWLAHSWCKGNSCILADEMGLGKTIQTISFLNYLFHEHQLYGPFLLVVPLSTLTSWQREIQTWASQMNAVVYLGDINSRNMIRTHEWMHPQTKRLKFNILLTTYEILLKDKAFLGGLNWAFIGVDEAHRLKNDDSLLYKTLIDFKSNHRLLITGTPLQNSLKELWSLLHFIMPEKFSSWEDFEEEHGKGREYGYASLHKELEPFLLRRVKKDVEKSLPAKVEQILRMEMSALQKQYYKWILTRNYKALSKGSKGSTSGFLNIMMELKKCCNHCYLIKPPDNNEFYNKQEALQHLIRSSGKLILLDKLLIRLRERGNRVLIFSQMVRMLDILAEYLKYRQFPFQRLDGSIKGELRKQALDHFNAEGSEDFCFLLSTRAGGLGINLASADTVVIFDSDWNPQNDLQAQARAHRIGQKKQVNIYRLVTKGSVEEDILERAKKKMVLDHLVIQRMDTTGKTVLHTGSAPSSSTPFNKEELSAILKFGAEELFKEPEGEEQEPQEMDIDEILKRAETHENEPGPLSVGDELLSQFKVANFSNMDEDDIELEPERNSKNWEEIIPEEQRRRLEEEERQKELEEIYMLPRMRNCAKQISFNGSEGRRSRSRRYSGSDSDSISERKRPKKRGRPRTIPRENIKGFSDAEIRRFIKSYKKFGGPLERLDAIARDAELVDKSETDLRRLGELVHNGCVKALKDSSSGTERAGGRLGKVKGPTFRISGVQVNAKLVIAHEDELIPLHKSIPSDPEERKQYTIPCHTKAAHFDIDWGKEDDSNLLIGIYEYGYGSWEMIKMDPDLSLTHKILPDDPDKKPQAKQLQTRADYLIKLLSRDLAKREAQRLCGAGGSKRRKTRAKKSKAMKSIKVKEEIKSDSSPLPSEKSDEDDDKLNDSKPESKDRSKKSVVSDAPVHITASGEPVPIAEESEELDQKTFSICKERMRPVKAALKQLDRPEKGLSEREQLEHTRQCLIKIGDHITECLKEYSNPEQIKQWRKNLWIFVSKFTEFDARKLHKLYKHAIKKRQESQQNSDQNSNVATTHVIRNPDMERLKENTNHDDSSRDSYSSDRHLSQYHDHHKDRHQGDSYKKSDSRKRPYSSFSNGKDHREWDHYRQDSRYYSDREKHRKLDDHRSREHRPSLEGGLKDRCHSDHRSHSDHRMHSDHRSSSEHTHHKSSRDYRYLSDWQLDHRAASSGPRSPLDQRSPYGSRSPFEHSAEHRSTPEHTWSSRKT
UniProt P43275: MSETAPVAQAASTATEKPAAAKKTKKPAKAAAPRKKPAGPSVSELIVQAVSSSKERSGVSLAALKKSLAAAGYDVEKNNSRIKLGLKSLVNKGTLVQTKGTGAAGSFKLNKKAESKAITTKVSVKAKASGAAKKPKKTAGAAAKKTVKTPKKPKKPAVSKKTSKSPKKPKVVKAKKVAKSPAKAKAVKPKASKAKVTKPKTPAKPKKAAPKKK
UniProt P40142: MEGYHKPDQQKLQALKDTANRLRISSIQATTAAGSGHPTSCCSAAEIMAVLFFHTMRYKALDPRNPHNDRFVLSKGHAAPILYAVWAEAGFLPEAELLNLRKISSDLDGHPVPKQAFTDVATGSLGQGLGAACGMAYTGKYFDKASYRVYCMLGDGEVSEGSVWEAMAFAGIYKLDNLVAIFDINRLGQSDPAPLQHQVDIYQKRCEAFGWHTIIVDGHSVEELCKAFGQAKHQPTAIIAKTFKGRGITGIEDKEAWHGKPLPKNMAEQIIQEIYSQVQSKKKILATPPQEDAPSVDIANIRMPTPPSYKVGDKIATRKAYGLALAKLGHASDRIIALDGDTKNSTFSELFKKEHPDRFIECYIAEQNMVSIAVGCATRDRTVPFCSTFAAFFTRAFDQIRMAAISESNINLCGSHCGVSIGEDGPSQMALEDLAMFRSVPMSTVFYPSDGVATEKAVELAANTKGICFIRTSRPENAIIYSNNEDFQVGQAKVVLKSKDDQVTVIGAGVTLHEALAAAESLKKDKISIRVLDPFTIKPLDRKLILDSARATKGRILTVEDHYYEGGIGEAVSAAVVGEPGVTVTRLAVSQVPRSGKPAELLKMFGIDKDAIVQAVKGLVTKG

Each target was assayed with CN[C@@H]1C[C@H]2O[C@@](C)([C@@H]1OC)n1c3ccccc3c3c4c(c5c6ccccc6n2c5c31)C(=O)NC4 [staurosporine] (assay: log2 fold change of tryptic peptide abundance, ligand vs vehicle (limited proteolysis) (log2 ratio); higher = more trypsin-susceptible (destabilized)). Conditions: ligand concentration: 20 uM; sample: mouse liver crude lysate; replicate design: treated separately.

Target	log2 fold change
UniProt P51125 (peptide sequence: AKEEEHEKLGEK, peptide start residue: 540)	-0.386
UniProt P41317 (peptide sequence: VKALCSEFQGSVATPR, peptide start residue: 147)	-0.162
UniProt P52019 (peptide sequence: SPESEKKEQLESK, peptide start residue: 82)	-0.385
UniProt P49452 (peptide sequence: SLAISRPK, peptide start residue: 593)	0.329
UniProt P46412 (peptide sequence: GDVNGEKEQK, peptide start residue: 138)	-0.641
UniProt P36993 (peptide sequence: ILSAENIPNLPPGGGLAGKR, peptide start residue: 341)	0.486
UniProt P40201 (peptide sequence: KQYTIPCHTK, peptide start residue: 1234)	0.703
UniProt P43275 (peptide sequence: SLAAAGYDVEKNNSR, peptide start residue: 67)	-0.0975
UniProt P40142 (peptide sequence: KAYGLALAK, peptide start residue: 319)	0.171
